The text below walks through data of paper PMC5996148.

The chains behind the UniProt entries cited, without tags or fusion partners.
UniProt P02751, whole entry: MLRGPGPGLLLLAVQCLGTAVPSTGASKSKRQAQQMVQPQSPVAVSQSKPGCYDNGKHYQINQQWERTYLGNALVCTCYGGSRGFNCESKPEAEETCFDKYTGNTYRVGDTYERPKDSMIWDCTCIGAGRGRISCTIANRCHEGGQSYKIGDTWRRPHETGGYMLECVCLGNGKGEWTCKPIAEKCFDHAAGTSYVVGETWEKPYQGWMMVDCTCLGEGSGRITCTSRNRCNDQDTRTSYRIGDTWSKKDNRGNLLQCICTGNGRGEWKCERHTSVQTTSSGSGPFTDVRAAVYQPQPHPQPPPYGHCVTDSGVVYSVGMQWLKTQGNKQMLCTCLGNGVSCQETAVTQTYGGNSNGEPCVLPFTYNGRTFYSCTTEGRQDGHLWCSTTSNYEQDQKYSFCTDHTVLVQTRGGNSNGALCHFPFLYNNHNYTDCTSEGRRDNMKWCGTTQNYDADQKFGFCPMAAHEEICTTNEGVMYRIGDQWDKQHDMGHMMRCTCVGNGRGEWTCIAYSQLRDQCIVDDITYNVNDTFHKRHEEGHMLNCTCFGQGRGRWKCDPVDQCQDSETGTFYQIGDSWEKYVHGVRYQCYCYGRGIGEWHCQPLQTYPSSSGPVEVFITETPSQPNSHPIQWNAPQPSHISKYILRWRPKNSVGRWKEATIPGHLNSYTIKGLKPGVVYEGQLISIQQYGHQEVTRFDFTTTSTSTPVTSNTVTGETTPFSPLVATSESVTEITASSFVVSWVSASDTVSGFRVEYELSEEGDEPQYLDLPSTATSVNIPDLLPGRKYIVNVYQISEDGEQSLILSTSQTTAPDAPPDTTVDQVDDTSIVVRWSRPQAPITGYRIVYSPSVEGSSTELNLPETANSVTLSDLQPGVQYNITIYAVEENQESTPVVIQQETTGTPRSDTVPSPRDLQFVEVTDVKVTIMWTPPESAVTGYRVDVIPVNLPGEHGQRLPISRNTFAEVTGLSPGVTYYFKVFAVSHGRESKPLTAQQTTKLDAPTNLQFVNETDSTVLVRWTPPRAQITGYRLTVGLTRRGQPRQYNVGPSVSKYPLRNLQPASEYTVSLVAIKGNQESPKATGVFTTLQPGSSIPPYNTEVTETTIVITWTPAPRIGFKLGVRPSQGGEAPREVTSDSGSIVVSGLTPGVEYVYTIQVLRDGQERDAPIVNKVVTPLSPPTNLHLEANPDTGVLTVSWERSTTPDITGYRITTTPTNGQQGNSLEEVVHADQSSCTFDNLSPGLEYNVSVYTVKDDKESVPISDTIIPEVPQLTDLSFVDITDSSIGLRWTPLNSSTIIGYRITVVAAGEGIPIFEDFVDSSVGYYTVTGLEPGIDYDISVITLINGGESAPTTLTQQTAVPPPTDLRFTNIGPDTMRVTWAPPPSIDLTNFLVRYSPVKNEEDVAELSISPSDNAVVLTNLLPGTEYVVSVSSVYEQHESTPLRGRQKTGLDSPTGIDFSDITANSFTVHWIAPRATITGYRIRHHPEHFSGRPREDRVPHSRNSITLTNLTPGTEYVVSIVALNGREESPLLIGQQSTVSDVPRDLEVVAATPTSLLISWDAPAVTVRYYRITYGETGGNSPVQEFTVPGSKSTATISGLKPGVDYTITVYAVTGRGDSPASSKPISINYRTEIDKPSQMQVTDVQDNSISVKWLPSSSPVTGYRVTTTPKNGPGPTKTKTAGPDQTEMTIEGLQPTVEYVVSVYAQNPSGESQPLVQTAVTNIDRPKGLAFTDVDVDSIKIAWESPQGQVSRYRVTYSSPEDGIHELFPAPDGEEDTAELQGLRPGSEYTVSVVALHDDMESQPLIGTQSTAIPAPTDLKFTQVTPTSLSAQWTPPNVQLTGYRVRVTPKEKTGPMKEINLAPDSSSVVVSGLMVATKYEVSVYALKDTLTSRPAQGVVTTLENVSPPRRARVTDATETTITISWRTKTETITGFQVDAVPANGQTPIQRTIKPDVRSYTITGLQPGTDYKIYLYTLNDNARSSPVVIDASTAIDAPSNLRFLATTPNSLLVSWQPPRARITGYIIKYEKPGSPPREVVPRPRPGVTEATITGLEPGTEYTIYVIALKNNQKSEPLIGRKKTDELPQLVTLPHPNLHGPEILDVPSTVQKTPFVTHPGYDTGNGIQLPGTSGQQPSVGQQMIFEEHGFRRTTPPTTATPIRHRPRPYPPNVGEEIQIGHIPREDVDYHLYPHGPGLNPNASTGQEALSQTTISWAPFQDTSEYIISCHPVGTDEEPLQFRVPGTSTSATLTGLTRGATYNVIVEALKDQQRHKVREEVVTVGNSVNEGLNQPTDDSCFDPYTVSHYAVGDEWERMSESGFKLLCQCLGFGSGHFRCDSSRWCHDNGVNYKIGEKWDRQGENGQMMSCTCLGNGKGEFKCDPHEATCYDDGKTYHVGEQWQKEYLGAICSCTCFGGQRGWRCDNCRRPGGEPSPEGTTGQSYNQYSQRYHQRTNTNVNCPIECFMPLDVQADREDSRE

The list shows a part of the results. For some of these results: The exact form of the protein is not confirmed.

Test systems include FLJ36032 (human); FLJ43980 (human); FLJ90650 (human); FLOT2 (human); FLT3LG (human); FN3KRP (human); FNBP1 (human); FNDC5 (human); FNDC8 (human).
Common to all, as to experiment: protein microarray (ProtoArray v5.0), streptavidin-Alexa Fluor 647
Settings in all cases: 3'-biotin; 20 mM Tris (pH 7.5), 5 mM MgCl2, 100 mM KCl, 0.1% Tween-20, A/T-rich and random oligonucleotide blockers; temperature not stated; high values mean tight binding

Another test deals with FN1 (UniProt P02751).

With “GGGAGGCTGAGGCAGG [G4-1 biotinylated (PQS2)]”, the binding signal with FLJ36032 (human) is -0.291 z-score; in the test on FLJ43980 (human), -0.345 z-score; in the test on FLJ90650 (human) it was -0.306 z-score; with FLOT2 (human), -0.342 z-score; in the test with FLT3LG (human) it was -0.298 z-score; with FN1 it was -0.296 z-score. Besides, the binding signal in the test on FN3KRP (human) was -0.324 z-score; in the test with FNBP1 (human), -0.339 z-score; in the test on FNDC5 (human), -0.299 z-score; with FNDC8 (human), -0.328 z-score.
